Measured values from patent publication US12559629B2, “Method for preparing a stable Trypan Blue solution” (BECKMAN COULTER, INC., priority 2020, dated 2026).
At least one compound was matched to its structure with a doubt left.

Test: Dye precipitation on mixing Nominal 0.4% Trypan Blue in NaCl with polycationic compounds
Format: physicochemical
Details: Nominal 0.4% Trypan Blue in NaCl (0.20 mL) mixed with 0.5 mg mL^−1 compound in PBS (0.20 mL)
Text: In the present study, Trypan Blue was mixed with various cell culture medium containing polycationic compounds. Nominal 0.4% Trypan Blue in NaCl was mixed with PBS (negative control), kanamycin (a positively charged aminoglycoside), and spermidine (a positively charged polyamine). […] This effect can be reasonably generalized to other polycationic compounds, particularly those containing amine functional groups.

NC[C@H]1O[C@H](O[C@H]2[C@H](O)[C@@H](O[C@H]3O[C@H](CO)[C@@H](O)[C@H](N)[C@H]3O)[C@H](N)C[C@@H]2N)[C@H](O)[C@@H](O)[C@@H]1O [kanamycin]
Precipitation of Trypan Blue: trigger immediate precipitation of Trypan Blue
